Source: the supplement of paper PMC9433722
Structures can show the parent of a compound that is named as a salt. This is one part of the list. Single values are uncertain, as repeats are few or missing.

These compounds were tested on Saos-2 (assay: cell viability (CCK-8) relative to DMSO control (% of control); higher = less cytotoxic). Details: 10 µM; 48 h.

| SMILES | cell viability |
| --- | --- |
| O=C(O)CCc1nc(-c2ccccc2)c(-c2ccccc2)o1 [Oxaprozin] | 110 |
| Cc1oncc1C(=O)Nc1ccc(C(F)(F)F)cc1 [Leflunomide] | 67.9 |
| NC[C@H]1CC[C@H](C(=O)O)CC1 [Tranexamic Acid] | 66.7 |
| CCc1nn(CCCN2CCN(c3cccc(Cl)c3)CC2)c(=O)n1CCOc1ccccc1 [Nefazodone·HCl] | 76.5 |
| CCOC(=O)[C@H](CCc1ccccc1)N[C@@H](C)C(=O)N1Cc2ccccc2C[C@H]1C(=O)O [Quinapril·HCl] | 66.3 |
| NNCCc1ccccc1 [Phenelzine Sulfate] | 105 |
| N=C(N)NC(=O)Cc1c(Cl)cccc1Cl [Guanfacine·HCl] | 57.1 |
| COc1cc(NC(C)CCCN)c2ncccc2c1 (stereo not drawn) [Primaquine diphosphate] | 54.4 |
| CC(COc1ccccc1)N(CCCl)Cc1ccccc1 (stereo not drawn) [Phenoxybenzamine . hydrochloride] | 68.4 |
| O=C1CN(/N=C/c2ccc(-c3ccc([N+](=O)[O-])cc3)o2)C(=O)N1 [Dantrolene . sodium] | 106 |
| CN(C)CCOc1ccc(/C(=C(/CCCl)c2ccccc2)c2ccccc2)cc1 [Toremifene Base] | 67.4 |
| CC(C)Cn1cnc2c(N)nc3ccccc3c21 [Imiquimod] | 67.5 |
| C[C@@H](O)[C@H]1C(=O)N2C(C(=O)O)=C(S[C@@H]3CN[C@H](CNS(N)(=O)=O)C3)[C@H](C)[C@H]12 [Doripenem] | 116 |
| O=C(O)c1cn(C2CC2)c2cc(N3CCNCC3)c(F)cc2c1=O [Ciprofloxacin] | 66.7 |
| Cc1cn(-c2cc(NC(=O)c3ccc(C)c(Nc4nccc(-c5cccnc5)n4)c3)cc(C(F)(F)F)c2)cn1 [Nilotinib] | 66 |
| CC1=C(/C=C/C(C)=C\C=C\C(C)=C\C(=O)O)C(C)(C)CCC1 [9-cis-Retinoic acid] | 101 |
| CC(=O)OCC(=O)[C@@]1(O)CC[C@H]2[C@@H]3CCC4=CC(=O)CC[C@]4(C)[C@H]3[C@@H](O)C[C@@]21C [Hydrocortisone Acetate] | 70.4 |

Laid out differently: 2 of the compounds above.
SMILES,cell viability
O=C1CN(/N=C/c2ccc(-c3ccc([N+](=O)[O-])cc3)o2)C(=O)N1 [Dantrolene . sodium],106
CN(C)CCOc1ccc(/C(=C(/CCCl)c2ccccc2)c2ccccc2)cc1 [Toremifene Base],67.4

(list continues)

| SMILES | cell viability |
| --- | --- |
| CC(=O)N[C@H]1[C@H]([C@H](O)[C@H](O)CO)OC(C(=O)O)=C[C@@H]1NC(=N)N [Zanamivir] | 148 |
| CCN1CCN(C(=O)N[C@@H](C(=O)N[C@@H]2C(=O)N3[C@@H]2SC(C)(C)[C@@H]3C(=O)O)c2ccccc2)C(=O)C1=O [Piperacillin] | 64.6 |
| CC1=C(CC(=O)O)c2cc(F)ccc2/C1=C\c1ccc([S+](C)[O-])cc1 (stereo not drawn) [Sulindac] | 63.7 |
| COC(=O)N[C@H](C(=O)N[C@@H](Cc1ccccc1)[C@@H](O)CN(Cc1ccc(-c2ccccn2)cc1)NC(=O)[C@@H](NC(=O)OC)C(C)(C)C)C(C)(C)C [Atazanavir] | 59.2 |
| c1cnc2cc3c(cc2n1)[C@@H]1CNC[C@H]3C1 [Varenicline Tartrate] | 87.6 |
| C[C@]12CC[C@@H]3c4ccc(O)cc4C[C@@H](CCCCCCCCC[S+]([O-])CCCC(F)(F)C(F)(F)F)[C@H]3[C@@H]1CC[C@@H]2O (stereo partly drawn) [Fulvestrant] | 66.6 |
| COc1ccc(Cl)cc1C(=O)NCCc1ccc(S(=O)(=O)NC(=O)NC2CCCCC2)cc1 [Glyburide] | 71.3 |
| Clc1ccc(C(Cn2ccnc2)OCc2csc3c(Cl)cccc23)c(Cl)c1 (stereo not drawn) [Sertaconazole . Nitrate] | 60.2 |
| O=C1c2cccc3c2[C@H](CCC3)CN1[C@@H]1CN2CCC1CC2 [Palonosetron·HCl] | 78.7 |
| CC1(C)O[C@@H]2C[C@H]3[C@@H]4C[C@H](F)C5=CC(=O)C=C[C@]5(C)[C@H]4[C@@H](O)C[C@]3(C)[C@]2(C(=O)CO)O1 [Flunisolide] | 98.8 |
| CC1(C)O[C@@H]2C[C@H]3[C@@H]4CCC5=CC(=O)C=C[C@]5(C)[C@H]4[C@@H](O)C[C@]3(C)[C@]2(C(=O)CO)O1 [Desonide] | 114 |
| Cc1ccnc2c1NC(=O)c1cccnc1N2C1CC1 [Nevirapine] | 112 |
| OC[C@H]1O[C@@H](n2cnc3c2N=CNC[C@H]3O)C[C@@H]1O [Pentostatin] | 107 |
| Cc1ccc(Nc2nccc(N(C)c3ccc4c(C)n(C)nc4c3)n2)cc1S(N)(=O)=O [Pazopanib·HCl] | 82.8 |
| O=C1NC(=O)C(c2ccccc2)(c2ccccc2)N1 [Phenytoin] | 62.5 |
| C#C[C@]1(O)CC[C@H]2[C@@H]3CCC4=CC(=O)CC[C@@H]4[C@H]3C(=C)C[C@@]21CC [Etonogestrel] | 105 |
